Measured values reported in the supplement of paper PMC12819154, “High-throughput peptide-centric local stability assay extends protein–ligand identification to membrane proteins, tissues and bacteria” (Nature Structural & Molecular Biology, 2025).
The other results are listed elsewhere or left out. Small differences around the control level are noise.

Amino acid sequences for entries named in this document (tags omitted). A change or cut given only in a name is not applied to a line headed by its entry.
UniProt Q15813: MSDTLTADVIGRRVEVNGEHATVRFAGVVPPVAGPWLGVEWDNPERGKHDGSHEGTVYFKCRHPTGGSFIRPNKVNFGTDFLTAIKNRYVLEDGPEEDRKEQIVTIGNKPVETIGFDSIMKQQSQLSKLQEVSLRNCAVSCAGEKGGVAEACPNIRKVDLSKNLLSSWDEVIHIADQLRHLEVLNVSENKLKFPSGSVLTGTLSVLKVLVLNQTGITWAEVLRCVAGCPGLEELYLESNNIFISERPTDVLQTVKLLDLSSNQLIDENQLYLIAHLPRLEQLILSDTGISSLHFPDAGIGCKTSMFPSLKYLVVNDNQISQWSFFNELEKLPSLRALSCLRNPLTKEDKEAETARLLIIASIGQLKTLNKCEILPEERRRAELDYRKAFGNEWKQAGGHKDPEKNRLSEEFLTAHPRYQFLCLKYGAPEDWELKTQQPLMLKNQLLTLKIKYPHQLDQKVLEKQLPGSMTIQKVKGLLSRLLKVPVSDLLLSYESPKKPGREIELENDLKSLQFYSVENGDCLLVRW
UniProt Q15084: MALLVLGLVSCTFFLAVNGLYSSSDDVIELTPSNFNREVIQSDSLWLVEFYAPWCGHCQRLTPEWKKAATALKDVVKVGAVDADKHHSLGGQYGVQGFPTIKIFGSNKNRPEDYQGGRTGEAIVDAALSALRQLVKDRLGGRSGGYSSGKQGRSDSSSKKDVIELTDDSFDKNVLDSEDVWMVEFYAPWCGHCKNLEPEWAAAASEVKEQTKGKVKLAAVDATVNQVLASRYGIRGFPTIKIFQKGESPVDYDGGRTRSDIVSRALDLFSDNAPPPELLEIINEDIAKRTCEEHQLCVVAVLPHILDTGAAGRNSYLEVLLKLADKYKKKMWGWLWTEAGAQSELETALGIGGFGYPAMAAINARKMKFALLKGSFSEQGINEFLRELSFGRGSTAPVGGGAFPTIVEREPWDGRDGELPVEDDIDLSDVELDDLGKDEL
UniProt Q15172: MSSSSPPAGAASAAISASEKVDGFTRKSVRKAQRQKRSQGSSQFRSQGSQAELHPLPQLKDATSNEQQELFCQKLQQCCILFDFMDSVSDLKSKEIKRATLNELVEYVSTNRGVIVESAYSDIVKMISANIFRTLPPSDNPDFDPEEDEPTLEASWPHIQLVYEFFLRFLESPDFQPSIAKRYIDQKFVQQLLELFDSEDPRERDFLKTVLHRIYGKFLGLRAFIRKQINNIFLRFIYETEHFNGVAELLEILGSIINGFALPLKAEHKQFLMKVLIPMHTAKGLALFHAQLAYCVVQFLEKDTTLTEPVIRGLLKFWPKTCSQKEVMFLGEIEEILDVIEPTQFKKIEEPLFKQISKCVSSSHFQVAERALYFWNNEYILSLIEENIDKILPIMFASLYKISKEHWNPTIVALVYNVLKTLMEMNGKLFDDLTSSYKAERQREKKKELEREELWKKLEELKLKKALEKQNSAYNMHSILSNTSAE
UniProt Q15459: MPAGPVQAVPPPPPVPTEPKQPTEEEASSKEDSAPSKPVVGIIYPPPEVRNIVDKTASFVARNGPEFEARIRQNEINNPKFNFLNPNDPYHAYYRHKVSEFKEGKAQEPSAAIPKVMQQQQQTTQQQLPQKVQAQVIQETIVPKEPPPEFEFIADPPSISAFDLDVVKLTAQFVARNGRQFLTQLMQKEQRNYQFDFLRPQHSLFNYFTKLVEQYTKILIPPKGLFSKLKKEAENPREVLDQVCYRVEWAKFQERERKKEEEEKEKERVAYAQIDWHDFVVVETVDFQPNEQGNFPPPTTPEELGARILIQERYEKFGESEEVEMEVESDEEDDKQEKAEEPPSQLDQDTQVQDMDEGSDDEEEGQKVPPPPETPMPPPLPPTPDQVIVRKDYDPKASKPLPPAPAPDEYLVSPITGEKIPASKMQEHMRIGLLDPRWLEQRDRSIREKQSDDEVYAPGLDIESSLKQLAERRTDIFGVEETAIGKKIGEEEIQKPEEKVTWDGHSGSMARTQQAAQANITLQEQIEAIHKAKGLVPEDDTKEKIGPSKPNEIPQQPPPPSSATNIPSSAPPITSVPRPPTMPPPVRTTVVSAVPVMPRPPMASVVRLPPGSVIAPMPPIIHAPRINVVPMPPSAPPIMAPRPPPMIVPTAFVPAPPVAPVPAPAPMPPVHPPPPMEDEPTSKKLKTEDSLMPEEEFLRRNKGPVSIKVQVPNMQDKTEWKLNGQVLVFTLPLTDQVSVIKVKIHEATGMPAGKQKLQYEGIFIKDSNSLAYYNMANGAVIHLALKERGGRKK
UniProt Q16822, whole entry: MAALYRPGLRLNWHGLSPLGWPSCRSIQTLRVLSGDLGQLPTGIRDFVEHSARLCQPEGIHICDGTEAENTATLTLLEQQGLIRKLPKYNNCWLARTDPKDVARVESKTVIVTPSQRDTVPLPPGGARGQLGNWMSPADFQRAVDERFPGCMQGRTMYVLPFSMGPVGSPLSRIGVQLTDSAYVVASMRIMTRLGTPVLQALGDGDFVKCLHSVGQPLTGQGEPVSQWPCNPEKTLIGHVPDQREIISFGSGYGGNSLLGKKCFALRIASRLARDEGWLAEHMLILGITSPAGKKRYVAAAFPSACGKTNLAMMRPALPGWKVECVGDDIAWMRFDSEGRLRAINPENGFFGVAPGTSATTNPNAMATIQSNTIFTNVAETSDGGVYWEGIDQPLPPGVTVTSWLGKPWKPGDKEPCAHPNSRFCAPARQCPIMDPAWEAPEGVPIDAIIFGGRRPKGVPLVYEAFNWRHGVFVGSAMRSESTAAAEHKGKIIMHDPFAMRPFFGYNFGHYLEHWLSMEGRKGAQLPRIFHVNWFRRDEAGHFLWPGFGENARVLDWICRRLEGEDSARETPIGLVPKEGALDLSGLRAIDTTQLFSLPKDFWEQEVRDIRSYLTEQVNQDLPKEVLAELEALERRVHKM
UniProt Q15814: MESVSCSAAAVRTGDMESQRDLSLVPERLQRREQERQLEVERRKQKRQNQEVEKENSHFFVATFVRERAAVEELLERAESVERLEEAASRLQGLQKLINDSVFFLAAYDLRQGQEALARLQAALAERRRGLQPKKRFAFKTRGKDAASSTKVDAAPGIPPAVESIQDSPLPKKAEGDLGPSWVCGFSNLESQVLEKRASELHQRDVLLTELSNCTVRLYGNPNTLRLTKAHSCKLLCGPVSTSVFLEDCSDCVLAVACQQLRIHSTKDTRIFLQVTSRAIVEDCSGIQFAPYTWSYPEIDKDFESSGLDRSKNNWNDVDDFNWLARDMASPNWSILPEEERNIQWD
UniProt Q15758: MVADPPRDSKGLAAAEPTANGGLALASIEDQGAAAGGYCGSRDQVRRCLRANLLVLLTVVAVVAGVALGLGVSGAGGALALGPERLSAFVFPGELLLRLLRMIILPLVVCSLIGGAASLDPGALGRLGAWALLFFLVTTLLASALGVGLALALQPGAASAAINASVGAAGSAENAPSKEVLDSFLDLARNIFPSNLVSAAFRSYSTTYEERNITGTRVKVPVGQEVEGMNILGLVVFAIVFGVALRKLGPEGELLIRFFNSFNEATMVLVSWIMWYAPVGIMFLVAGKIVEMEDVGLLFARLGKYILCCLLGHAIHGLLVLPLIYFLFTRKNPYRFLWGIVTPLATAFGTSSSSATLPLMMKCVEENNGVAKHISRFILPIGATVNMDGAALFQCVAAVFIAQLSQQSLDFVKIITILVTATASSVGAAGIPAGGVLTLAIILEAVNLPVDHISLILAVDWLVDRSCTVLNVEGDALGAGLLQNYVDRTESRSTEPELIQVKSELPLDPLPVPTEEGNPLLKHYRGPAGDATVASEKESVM

What follows are targets tested with CN[C@@H]1C[C@H]2O[C@@](C)([C@@H]1OC)n1c3ccccc3c3c4c(c5c6ccccc6n2c5c31)C(=O)NC4 [staurosporine] (assay: log2 fold change of tryptic peptide abundance, ligand vs vehicle (limited proteolysis) (log2 ratio); higher = more trypsin-susceptible (destabilized)). Details: ligand concentration: 20 uM; sample: K562 cleared lysate; digestion: 4 min, 22 C (HT-PELSA RT4min, Orbitrap Astral).

Row | Target | log2 fold change
1 | TBCE (peptide sequence: VEVNGEHATVR, peptide start residue: 14) (UniProt Q15813) | 0.741
2 | PDIA6 (peptide sequence: HHSLGGQYGVQGFPTIK, peptide start residue: 86) (UniProt Q15084) | 0.332
3 | PPP2R5A (peptide sequence: ELEREELWK, peptide start residue: 448) (UniProt Q15172) | -0.164
4 | SF3A1 (peptide sequence: HKVSEFK, peptide start residue: 96) (UniProt Q15459) | 0.255
5 | PCK2 (peptide sequence: LARDEGWLAEHMLILGITSPAGK, peptide start residue: 272) (UniProt Q16822) | 0.548
6 | TBCC (peptide sequence: AAVEELLERAESVER, peptide start residue: 69) (UniProt Q15814) | 0.588
7 | SLC1A5 (peptide sequence: HYRGPAGDATVASEK, peptide start residue: 523) (UniProt Q15758) | 0.391
